From article doi:10.1101/2020.05.11.089656
Results are given in words; binding and its absence hold for the method and conditions named. Binding seen in cells or lysates may run through a third protein. Some binding calls cover weakened binding; strength is not graded here.

Protein sequences, listed by entry. Tags and fused reporters are not part of them.
UniProt P46940: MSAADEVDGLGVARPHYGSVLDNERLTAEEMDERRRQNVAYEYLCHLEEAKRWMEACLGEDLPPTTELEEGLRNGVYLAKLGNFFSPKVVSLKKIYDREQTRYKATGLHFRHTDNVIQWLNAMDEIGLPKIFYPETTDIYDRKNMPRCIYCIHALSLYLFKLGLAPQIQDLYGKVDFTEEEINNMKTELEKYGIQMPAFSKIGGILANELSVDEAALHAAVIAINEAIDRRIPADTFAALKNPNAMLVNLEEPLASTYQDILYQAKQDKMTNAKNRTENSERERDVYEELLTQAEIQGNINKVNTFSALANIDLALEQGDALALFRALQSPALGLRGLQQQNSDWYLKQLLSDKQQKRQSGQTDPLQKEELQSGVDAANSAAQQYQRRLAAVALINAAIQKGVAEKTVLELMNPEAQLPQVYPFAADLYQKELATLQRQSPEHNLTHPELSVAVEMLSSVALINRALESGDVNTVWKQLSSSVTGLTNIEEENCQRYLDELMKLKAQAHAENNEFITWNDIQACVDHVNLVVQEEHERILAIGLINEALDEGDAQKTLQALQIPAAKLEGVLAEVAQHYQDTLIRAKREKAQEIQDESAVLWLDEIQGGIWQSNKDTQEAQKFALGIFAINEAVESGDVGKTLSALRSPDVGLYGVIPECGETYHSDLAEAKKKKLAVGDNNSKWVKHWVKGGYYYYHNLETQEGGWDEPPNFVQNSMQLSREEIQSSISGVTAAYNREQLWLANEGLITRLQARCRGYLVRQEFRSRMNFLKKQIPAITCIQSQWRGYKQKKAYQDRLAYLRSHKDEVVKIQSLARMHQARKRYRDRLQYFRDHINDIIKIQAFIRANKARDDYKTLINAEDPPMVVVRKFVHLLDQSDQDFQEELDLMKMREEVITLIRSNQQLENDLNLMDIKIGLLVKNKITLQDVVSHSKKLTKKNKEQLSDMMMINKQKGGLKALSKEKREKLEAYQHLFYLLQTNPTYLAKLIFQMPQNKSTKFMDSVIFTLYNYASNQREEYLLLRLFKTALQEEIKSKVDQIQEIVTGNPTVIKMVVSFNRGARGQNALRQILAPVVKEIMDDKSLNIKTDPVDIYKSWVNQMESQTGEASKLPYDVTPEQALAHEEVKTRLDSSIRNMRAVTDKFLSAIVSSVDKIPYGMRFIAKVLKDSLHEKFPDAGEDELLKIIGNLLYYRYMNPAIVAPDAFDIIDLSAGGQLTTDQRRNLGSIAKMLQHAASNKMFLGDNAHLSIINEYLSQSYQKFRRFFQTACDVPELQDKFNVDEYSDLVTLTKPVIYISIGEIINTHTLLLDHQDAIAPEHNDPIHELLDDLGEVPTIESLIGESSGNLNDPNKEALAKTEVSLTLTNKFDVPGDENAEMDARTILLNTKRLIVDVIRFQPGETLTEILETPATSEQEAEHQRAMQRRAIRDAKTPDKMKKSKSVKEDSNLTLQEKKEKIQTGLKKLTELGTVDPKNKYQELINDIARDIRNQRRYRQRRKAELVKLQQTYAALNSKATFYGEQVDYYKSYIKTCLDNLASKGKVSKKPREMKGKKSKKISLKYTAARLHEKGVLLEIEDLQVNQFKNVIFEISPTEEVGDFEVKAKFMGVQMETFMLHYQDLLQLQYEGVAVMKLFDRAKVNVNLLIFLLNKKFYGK
UniProt Q92841: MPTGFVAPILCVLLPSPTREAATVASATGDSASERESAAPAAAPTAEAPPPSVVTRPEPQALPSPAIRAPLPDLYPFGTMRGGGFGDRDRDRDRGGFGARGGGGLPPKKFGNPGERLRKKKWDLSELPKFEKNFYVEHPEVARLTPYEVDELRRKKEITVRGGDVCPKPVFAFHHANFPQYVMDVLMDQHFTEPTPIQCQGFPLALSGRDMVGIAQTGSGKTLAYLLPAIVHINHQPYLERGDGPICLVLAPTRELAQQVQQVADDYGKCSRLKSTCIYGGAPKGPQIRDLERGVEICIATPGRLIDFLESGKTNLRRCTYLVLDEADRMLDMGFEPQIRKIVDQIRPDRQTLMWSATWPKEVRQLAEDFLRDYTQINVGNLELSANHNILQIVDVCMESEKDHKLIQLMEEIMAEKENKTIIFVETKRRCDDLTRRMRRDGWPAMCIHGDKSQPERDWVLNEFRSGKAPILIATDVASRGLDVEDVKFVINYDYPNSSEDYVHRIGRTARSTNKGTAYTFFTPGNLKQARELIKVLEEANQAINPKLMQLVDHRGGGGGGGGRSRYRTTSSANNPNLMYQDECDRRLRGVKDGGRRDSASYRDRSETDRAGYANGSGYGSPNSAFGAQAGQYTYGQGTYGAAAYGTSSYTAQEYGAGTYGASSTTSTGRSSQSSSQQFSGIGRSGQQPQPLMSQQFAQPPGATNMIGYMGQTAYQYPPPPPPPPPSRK
UniProt Q07955: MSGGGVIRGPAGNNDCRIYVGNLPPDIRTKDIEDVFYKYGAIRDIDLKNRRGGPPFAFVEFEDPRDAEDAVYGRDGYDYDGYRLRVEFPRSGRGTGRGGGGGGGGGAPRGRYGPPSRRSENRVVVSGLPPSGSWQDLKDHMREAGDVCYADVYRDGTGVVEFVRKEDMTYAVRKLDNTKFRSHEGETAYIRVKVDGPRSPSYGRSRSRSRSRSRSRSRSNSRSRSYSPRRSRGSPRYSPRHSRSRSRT
UniProt Q16630: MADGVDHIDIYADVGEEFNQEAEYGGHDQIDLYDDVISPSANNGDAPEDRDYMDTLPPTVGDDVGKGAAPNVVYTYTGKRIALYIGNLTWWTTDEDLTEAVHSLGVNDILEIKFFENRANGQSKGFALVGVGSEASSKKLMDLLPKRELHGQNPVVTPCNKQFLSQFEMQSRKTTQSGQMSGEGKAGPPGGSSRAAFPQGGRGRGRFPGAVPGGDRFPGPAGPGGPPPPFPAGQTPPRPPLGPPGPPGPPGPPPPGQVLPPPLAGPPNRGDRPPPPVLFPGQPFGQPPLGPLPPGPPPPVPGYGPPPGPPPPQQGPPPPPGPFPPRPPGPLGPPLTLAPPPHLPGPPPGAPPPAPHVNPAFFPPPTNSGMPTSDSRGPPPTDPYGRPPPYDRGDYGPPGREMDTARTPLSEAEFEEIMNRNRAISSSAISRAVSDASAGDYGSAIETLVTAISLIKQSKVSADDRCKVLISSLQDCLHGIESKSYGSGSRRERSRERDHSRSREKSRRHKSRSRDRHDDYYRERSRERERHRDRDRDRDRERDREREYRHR

Experiments:
[1] = molecular target: IQGAP1 (IQ Motif Containing GTPase Activating Protein 1) (human (endogenous in NUGC4 and MKN45)) (UniProt P46940); test: co-IP
[2] = molecular target: IQGAP1 (IQ Motif Containing GTPase Activating Protein 1) (human (endogenous in NUGC4 and MKN45)) (UniProt P46940); test: co-IP; remark: listed apart in the source
[3] = molecular target: IQGAP1 (IQ Motif Containing GTPase Activating Protein 1) (human (endogenous in NUGC4 and MKN45)) (UniProt P46940); test: proximity ligation
[4] = molecular target: IQGAP1 (IQ Motif Containing GTPase Activating Protein 1) (human (endogenous in NUGC4 and MKN45)) (UniProt P46940); test: co-IP; remark: listed apart in the source

Row | binding [1] | binding [2] | binding [3] | binding [4] | Molecule
1 | binds |  |  |  | DDX17 (from UniProt Q92841 1-729)
2 | binds |  |  |  | SRSF1 (from UniProt Q07955 1-248)
3 | binds |  |  |  | CPSF6 (from UniProt Q16630 1-551)
4 | binds |  |  |  | ILF3/NF90 (protein, UniProt Q12906 1-894) MRPMRIFVNDDRHVMAKHSSVYPTQEELEAVQNMVSHTERALKAVSDWIDEQEKGSSEQAESDNMDVPPEDDSKEGAGEQKTEHMTRTLRGVMRVGLVAKGLLLKGDLDLELVLLCKEKPTTALLDKVADNLAIQLAAVTEDKYEILQSVDDAAIVIKNTKEPPLSLTIHLTSPVVREEMEKVLAGETLSVNDPPDVLDRQKCLAALASLRHAKWFQARANGLKSCVIVIRVLRDLCTRVPTWGPLRGWPLELLCEKSIGTANRPMGAGEALRRVLECLASGIVMPDGSGIYDPCEKEATDAIGHLDRQQREDITQSAQHALRLAAFGQLHKVLGMDPLPSKMPKKPKNENPVDYTVQIPPSTTYAITPMKRPMEEDGEEKSPSKKKKKIQKKEEKAEPPQAMNALMRLNQLKPGLQYKLVSQTGPVHAPIFTMSVEVDGNSFEASGPSKKTAKLHVAVKVLQDMGLPTGAEGRDSSKGEDSAEETEAKPAVVAPAPVVEAVSTPSAAFPSDATAEQGPILTKHGKNPVMELNEKRRGLKYELISETGGSHDKRFVMEVEVDGQKFQGAGSNKKVAKAYAALAALEKLFPDTPLALDANKKKRAPVPVRGGPKFAAKPHNPGFGMGGPMHNEVPPPPNLRGRGRGGSIRGRGRGRGFGGANHGGYMNAGAGYGSYGYGGNSATAGYSQFYSNGGHSGNASGGGGGGGGGSSGYGSYYQGDNYNSPVPPKHAGKKQPHGGQQKPSYGSGYQSHQGQQQSYNQSPYSNYGPPQGKQKGYNHGQGSYSYSNSYNSPGGGGGSDYNYESKFNYSGSGGRSGGNSYGSGGASYNPGSHGGYGGGSGGGSSYQGKQGGYSQSNYNSPGSGQNYSGPPSSYQSSQGGYGRNADHSMNYQYR
5 | binds | binds | binds | binds | heterogeneous nuclear ribonucleoprotein M (hnRNPM) (protein, UniProt P52272 1-730) MAAGVEAAAEVAATEIKMEEESGAPGVPSGNGAPGPKGEGERPAQNEKRKEKNIKRGGNRFEPYANPTKRYRAFITNIPFDVKWQSLKDLVKEKVGEVTYVELLMDAEGKSRGCAVVEFKMEESMKKAAEVLNKHSLSGRPLKVKEDPDGEHARRAMQKVMATTGGMGMGPGGPGMITIPPSILNNPNIPNEIIHALQAGRLGSTVFVANLDYKVGWKKLKEVFSMAGVVVRADILEDKDGKSRGIGTVTFEQSIEAVQAISMFNGQLLFDRPMHVKMDERALPKGDFFPPERPQQLPHGLGGIGMGLGPGGQPIDANHLNKGIGMGNIGPAGMGMEGIGFGINKMGGMEGPFGGGMENMGRFGSGMNMGRINEILSNALKRGEIIAKQGGGGGGGSVPGIERMGPGIDRLGGAGMERMGAGLGHGMDRVGSEIERMGLVMDRMGSVERMGSGIERMGPLGLDHMASSIERMGQTMERIGSGVERMGAGMGFGLERMAAPIDRVGQTIERMGSGVERMGPAIERMGLSMERMVPAGMGAGLERMGPVMDRMATGLERMGANNLERMGLERMGANSLERMGLERMGANSLERMGPAMGPALGAGIERMGLAMGGGGGASFDRAIEMERGNFGGSFAGSFGGAGGHAPGVARKACQIFVRNLPFDFTWKMLKDKFNECGHVLYADIKMENGKSKGCGVVKFESPEVAERACRMMNGMKLSGREIDVRIDRNA
6 | binds |  |  | binds | hnRNPL (protein, UniProt P14866 1-589) MSRRLLPRAEKRRRRLEQRQQPDEQRRRSGAMVKMAAAGGGGGGGRYYGGGSEGGRAPKRLKTDNAGDQHGGGGGGGGGAGAAGGGGGGENYDDPHKTPASPVVHIRGLIDGVVEADLVEALQEFGPISYVVVMPKKRQALVEFEDVLGACNAVNYAADNQIYIAGHPAFVNYSTSQKISRPGDSDDSRSVNSVLLFTILNPIYSITTDVLYTICNPCGPVQRIVIFRKNGVQAMVEFDSVQSAQRAKASLNGADIYSGCCTLKIEYAKPTRLNVFKNDQDTWDYTNPNLSGQGDPGSNPNKRQRQPPLLGDHPAEYGGPHGGYHSHYHDEGYGPPPPHYEGRRMGPPVGGHRRGPSRYGPQYGHPPPPPPPPEYGPHADSPVLMVYGLDQSKMNCDRVFNVFCLYGNVEKVKFMKSKPGAAMVEMADGYAVDRAITHLNNNFMFGQKLNVCVSKQPAIMPGQSYGLEDGSCSYKDFSESRNNRFSTPEQAAKNRIQHPSNVLHFFNAPLEVTEENFFEICDELGVKRPSSVKVFSGKSERSSSGLLEWESKSDALETLGFLNHYQMKNPNGPYPYTLKLCFSTAQHAS
